From patent US20230250131A1, “HYDROXYSTEROID COMPOUNDS” (Epirium Bio Inc., priority 2022, published 2023) come the findings set out here.

Each structure is given as a SMILES string. Where “and” joins values, the source holds several entries; their conditions need not be identical. Equal values may be shown once.

The subject of this test is PGC-1α. Kind of test: PGC-1α assay in differentiated C2C12 cells (ELISA-type antibody detection, absorbance at 450 nm). Type of test: cell-based. The following applies: each compound tested at 0.01 nM, DMSO control as 100%. The method, then: The compounds of Table 2 were synthesized and tested in a PGC-1α assay.
Culture conditions: DMEM containing 25 mM glucose with 10% FBS supplementation; grown at 37° C. and 5% CO2.
Assay Conditions: C2C12 cells were cultured in DMEM supplemented in 10% FBS up to 80% confluence. The cells were further trypsinized and seeded into a 96 well plate at a density of 5000 cells/well (well volume—100 μL) (Day 0). Following attachment, the cells were allowed to reach 80-90% confluence in the plate (typically 48 hours post seeding) and further differentiated using DMEM+2% Horse Serum (200 μL/well). The media was changed every day or at least every alternate day for 5 days to allow myoblasts to differentiate into myotubes. On day 7 (post seeding), the cells were treated with standards and test compounds for PGC-1α assay.
PGC-1α assay: For the detection of PGC-1α, the cells were incubated with […] primary antibody (Merck, WH10010891M3) in PBS-T containing 5% BSA at 4° C. overnight. The cells were then washed three times with PBS-T for 5 minutes and incubated with 1:1000 dilution secondary antibody (Anti-rabbit IgG, HRP-linked Antibody, Cell Signaling) in PBS-T with 100% BSA for 1 hour at RT. […] Then the plate was read at 450 nm using ELISA plate reader and absorbance recorded. […] was calculated using DMSO control as 100%. […]

On to `[2H]C([2H])([2H])C(=O)[C@@]1([2H])CCC2C3CC=C4C[C@@H](O)CC[C@]4(C)C3[C@@H](O)C[C@@]21C` (some centres unmarked), for which the “Single point PGC1-Alpha Assay: Activity (%)” value (C2C12 myotubes, individual experiments (Exp. 1-3), 10 pM) is 141% and 106% and 99%. The activity at 10 pM (Mus musculus, C2C12, C2C12 myotubes, average over experiments, read-out: Single point PGC1-Alpha Assay: Average Activity (%)) was determined as 115%.
